The values that follow come from PMC9715632.

The chains behind the UniProt entries cited, without tags or fusion partners.
UniProt Q9BTU6: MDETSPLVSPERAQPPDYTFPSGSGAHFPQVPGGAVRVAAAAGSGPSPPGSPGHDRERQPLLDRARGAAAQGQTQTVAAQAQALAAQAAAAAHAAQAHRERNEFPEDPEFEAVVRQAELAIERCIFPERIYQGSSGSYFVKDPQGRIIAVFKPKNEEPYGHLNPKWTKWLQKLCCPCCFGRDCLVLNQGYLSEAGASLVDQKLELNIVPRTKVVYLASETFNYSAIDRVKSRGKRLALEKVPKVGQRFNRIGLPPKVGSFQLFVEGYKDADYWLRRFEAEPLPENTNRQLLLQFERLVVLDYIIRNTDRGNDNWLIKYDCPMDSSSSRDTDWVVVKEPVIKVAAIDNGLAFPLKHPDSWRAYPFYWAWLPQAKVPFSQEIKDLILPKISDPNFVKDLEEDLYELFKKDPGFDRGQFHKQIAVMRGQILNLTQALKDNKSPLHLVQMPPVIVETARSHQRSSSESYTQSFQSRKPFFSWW

This experiment concerns the target T1, RAB22A (human (endogenous in HeLa)) (UniProt Q9UL26).
T1 sequence: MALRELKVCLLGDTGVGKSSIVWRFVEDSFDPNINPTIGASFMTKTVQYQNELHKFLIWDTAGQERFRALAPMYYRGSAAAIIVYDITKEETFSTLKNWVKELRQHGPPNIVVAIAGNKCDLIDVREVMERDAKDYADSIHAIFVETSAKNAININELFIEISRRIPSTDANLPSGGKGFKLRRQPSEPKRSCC
Description: co-IP; endogenous proteins, HeLa lysate, anti-RAB22A antibody or control IgG with protein A or A/G agarose, RIPA buffer, 6 h at 4 °C, five washes.

No constants are given. Whether binding was seen depends on the method and setting. Binding seen in cells or lysates may run through a third protein. Some entries that bind do so weakly or less than the wild type.

For the substance “PI4K2A (from UniProt Q9BTU6 1-479) (enzyme)”, the binding result was “binds”.
